Test results published in the supplement of paper PMC6411743.
± gives the standard deviation of the averaged measurements. Some of the results follow.

Amino acid sequences for entries named in this document (tags omitted). A change or cut given only in a name is not applied to a line headed by its entry.
UniProt Q8IY22: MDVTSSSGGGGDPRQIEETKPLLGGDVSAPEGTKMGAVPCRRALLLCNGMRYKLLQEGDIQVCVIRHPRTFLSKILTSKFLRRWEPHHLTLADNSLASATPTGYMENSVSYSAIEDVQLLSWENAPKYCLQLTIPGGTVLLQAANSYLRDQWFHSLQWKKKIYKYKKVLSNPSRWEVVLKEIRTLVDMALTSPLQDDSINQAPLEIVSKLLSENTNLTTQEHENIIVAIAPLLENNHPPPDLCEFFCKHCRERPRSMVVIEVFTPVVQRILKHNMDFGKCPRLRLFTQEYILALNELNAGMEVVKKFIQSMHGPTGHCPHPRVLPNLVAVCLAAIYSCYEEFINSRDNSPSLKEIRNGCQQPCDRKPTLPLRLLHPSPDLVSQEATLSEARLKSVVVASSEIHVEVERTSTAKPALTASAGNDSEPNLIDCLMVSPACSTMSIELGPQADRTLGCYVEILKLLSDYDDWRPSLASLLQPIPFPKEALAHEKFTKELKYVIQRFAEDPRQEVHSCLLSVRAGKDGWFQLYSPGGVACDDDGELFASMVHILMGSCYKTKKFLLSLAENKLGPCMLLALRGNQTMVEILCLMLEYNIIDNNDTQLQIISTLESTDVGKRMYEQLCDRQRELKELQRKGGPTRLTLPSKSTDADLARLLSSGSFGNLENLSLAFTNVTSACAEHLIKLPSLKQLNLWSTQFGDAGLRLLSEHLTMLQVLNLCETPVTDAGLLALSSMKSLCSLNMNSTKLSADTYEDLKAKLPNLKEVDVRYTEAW
UniProt Q86X53: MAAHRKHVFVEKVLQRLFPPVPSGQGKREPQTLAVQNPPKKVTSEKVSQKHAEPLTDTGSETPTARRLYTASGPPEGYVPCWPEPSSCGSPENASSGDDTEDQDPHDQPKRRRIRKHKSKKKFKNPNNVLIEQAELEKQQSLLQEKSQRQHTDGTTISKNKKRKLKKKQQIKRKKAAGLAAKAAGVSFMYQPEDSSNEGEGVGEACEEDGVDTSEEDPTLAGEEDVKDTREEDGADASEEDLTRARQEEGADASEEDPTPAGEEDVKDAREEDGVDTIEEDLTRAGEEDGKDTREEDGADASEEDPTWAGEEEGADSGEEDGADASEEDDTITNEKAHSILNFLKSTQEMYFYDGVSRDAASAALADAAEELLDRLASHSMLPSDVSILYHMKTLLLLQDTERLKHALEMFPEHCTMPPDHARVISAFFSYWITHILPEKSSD
UniProt Q8N2W9: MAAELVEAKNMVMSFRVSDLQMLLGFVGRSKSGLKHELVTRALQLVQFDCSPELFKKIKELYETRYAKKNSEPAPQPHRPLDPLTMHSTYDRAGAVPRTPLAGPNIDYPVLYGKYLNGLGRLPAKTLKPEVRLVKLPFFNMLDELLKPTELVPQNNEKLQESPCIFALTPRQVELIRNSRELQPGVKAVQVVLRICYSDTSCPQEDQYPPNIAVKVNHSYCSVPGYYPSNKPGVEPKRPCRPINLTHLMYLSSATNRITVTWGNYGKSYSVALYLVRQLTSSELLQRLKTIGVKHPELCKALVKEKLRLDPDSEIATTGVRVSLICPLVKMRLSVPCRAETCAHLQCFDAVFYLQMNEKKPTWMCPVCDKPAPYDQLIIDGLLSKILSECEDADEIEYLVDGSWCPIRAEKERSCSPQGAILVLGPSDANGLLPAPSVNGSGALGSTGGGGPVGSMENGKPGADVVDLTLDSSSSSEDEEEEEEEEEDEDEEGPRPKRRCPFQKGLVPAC
UniProt Q8NC96: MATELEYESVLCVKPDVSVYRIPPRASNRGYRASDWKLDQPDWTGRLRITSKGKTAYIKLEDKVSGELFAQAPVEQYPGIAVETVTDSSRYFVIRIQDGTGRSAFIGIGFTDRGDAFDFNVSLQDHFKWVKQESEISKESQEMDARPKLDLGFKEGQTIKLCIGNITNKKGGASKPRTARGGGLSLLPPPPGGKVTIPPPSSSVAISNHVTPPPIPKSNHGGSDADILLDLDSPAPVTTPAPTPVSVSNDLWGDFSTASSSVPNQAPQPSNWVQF

Compound: Nc1nc2c(ncn2[C@@H]2O[C@H](COP(=O)(O)OP(=O)(O)OP(=O)(O)O)[C@@H](O)[C@H]2O)c(=O)[nH]1 [guanosine triphosphate]
Assay: NP40-soluble protein abundance relative to vehicle (solubility fold change) (ratio); higher = more soluble protein in presence of GTP
Experimental: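 Solubility proteome profiling in Jurkat crude lysate. Lysate was treated with Mg-GTP (0.1-10 mM) for 10 min at room temperature and 3 min at 37 °C, then solubilised with 0.8% NP40 and benzonase, followed by ultracentrifugation. Proteins were quantified by TMT10 LC-MS/MS; the value is the NP40-soluble abundance relative to the NP40-processed vehicle, from 3 independent experiments.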

Target CMIP (UniProt Q8IY22) has an NP40-soluble protein abundance (concentration: 0.1mM) of 1.01 ± 0.066, an NP40-soluble protein abundance (concentration: 0.5mM) of 1.02 ± 0.072 and an NP40-soluble protein abundance (concentration: 1mM) of 0.999 ± 0.065. The NP40-soluble protein abundance (concentration: 2mM) was 0.899 ± 0.064, the NP40-soluble protein abundance (concentration: 4mM) was 0.894 ± 0.022 and the NP40-soluble protein abundance (concentration: 6mM) was 0.954 ± 0.029. The NP40-soluble protein abundance (concentration: 8mM) was 0.95 ± 0.0079 and the NP40-soluble protein abundance (concentration: 10mM) was 0.926 ± 0.043.

UniProt Q8IZE3-2|X6RHX1 showed an NP40-soluble protein abundance (concentration: 0.1mM) of 1.11 ± 0.11, an NP40-soluble protein abundance (concentration: 0.5mM) of 1.04 ± 0.059 and an NP40-soluble protein abundance (concentration: 1mM) of 1.01 ± 0.027. For the same target, the NP40-soluble protein abundance (concentration: 2mM) was 0.953 ± 0.09, the NP40-soluble protein abundance (concentration: 4mM) was 0.969 ± 0.021 and the NP40-soluble protein abundance (concentration: 6mM) was 0.904 ± 0.059. It also gave an NP40-soluble protein abundance (concentration: 8mM) of 1.01 ± 0.04 and an NP40-soluble protein abundance (concentration: 10mM) of 0.936 ± 0.12.

Work on UniProt Q86X53 and related entries yielded an NP40-soluble protein abundance (concentration: 0.1mM) of 0.957 ± 0.064, an NP40-soluble protein abundance (concentration: 0.5mM) of 0.89 ± 0.066 and an NP40-soluble protein abundance (concentration: 1mM) of 0.98 ± 0.062. For the same target, the NP40-soluble protein abundance (concentration: 2mM) was 0.946 ± 0.1, the NP40-soluble protein abundance (concentration: 4mM) was 1 ± 0.049 and the NP40-soluble protein abundance (concentration: 6mM) was 1 ± 0.12. For the same target, the NP40-soluble protein abundance (concentration: 8mM) was 1 ± 0.041 and the NP40-soluble protein abundance (concentration: 10mM) was 1 ± 0.081.

In the case of PIAS4 (UniProt Q8N2W9), the NP40-soluble protein abundance (concentration: 0.1mM) is reported as 1 ± 0.031, the NP40-soluble protein abundance (concentration: 0.5mM) is reported as 1.02 ± 0.023 and the NP40-soluble protein abundance (concentration: 1mM) is reported as 0.926 ± 0.066. For the same target, the NP40-soluble protein abundance (concentration: 2mM) was 0.953 ± 0.043, the NP40-soluble protein abundance (concentration: 4mM) was 0.93 ± 0.038 and the NP40-soluble protein abundance (concentration: 6mM) was 0.914 ± 0.072. For the same target, the NP40-soluble protein abundance (concentration: 8mM) was 0.958 ± 0.072 and the NP40-soluble protein abundance (concentration: 10mM) was 0.92 ± 0.069.

For NECAP1 (UniProt Q8NC96), the NP40-soluble protein abundance (concentration: 0.1mM) was 0.993 ± 0.18, the NP40-soluble protein abundance (concentration: 0.5mM) was 0.957 ± 0.12 and the NP40-soluble protein abundance (concentration: 1mM) was 1.01 ± 0.057. It also gave an NP40-soluble protein abundance (concentration: 2mM) of 0.972 ± 0.067, an NP40-soluble protein abundance (concentration: 4mM) of 0.958 ± 0.14 and an NP40-soluble protein abundance (concentration: 6mM) of 0.922 ± 0.086. It also gave an NP40-soluble protein abundance (concentration: 8mM) of 1.01 ± 0.088 and an NP40-soluble protein abundance (concentration: 10mM) of 0.988 ± 0.092.
